These are yes or no findings as the source states them, for the method shown. Binding seen in cells or lysates may run through a third protein. Some results given as binding are weak or reduced against the parent protein; the word gives no strength.
Biological target: ZNF300 (human) (UniProt Q96RE9)
Assay: co-IP; FLAG-ZNF300 expressed in A549 cells; pre-cleared whole-cell lysates incubated with rabbit anti-Flag antibody; precipitate immunoblotted

Sequences of proteins named here, by UniProt entry; tags and fusion partners are left off.
UniProt Q96RE9: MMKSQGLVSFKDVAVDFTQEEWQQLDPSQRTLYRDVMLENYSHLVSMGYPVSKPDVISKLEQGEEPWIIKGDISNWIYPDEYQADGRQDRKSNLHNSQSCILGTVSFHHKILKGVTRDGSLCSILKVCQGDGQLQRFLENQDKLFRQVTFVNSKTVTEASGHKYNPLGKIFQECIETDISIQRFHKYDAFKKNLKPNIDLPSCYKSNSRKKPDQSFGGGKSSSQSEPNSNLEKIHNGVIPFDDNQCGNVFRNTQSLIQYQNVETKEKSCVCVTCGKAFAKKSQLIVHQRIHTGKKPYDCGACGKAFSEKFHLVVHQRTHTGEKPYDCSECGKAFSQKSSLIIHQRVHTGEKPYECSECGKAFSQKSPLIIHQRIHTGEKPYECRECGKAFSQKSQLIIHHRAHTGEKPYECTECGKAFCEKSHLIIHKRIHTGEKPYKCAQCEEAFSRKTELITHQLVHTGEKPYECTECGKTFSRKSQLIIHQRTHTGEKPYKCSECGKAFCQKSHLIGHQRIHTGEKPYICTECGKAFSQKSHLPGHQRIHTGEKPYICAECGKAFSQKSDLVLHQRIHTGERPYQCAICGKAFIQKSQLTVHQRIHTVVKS
UniProt O00716: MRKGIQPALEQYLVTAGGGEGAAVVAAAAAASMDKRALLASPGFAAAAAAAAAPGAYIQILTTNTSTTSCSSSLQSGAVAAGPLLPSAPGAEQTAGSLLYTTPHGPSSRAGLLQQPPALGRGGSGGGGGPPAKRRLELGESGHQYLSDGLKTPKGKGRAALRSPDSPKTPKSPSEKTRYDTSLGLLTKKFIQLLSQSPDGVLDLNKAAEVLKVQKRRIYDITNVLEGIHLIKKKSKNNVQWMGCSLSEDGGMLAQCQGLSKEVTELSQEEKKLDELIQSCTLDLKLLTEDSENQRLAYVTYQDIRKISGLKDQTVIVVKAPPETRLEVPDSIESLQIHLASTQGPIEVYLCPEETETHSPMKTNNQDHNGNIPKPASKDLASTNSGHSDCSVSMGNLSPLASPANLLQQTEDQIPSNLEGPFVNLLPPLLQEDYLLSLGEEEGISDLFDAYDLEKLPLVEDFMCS

E2F3 (from UniProt O00716 1-465)
binding: binds

Source: publication PMC7653252
